The target in experiment [1] is human Bst2 decoy (soluble Bst2 protein fragment, six-histidine tagged) (human) (UniProt Q10589). Put plainly: phage ELISA on coated Bst2 decoy, anti-HA-HRP detection. For orientation: ELISA stands for enzyme-linked immunosorbent assay.
In experiment [2] the target is T1, mouse Damp1 decoy (soluble Damp1 protein fragment, His tagged) (mouse) (UniProt Q8R2Q8).
T1 sequence: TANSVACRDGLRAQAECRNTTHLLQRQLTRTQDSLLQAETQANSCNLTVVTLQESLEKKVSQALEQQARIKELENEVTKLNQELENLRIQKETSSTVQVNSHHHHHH
Put plainly: phage ELISA on coated Damp1 decoy, anti-HA-HRP detection.

Amino acid sequences for entries named in this document (tags omitted). A change or cut given only in a name is not applied to a line headed by its entry.
UniProt Q10589: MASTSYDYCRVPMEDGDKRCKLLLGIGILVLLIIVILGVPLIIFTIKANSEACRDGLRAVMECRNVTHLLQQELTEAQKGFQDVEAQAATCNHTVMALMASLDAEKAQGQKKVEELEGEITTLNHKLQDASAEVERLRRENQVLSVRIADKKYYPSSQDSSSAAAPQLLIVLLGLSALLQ

Where a chain is given by its changes, count along the chain named. Results are given in words; binding and its absence hold for the method and conditions named. Some results given as binding are weak or reduced against the parent protein; the word gives no strength. For part of these data: Sequences can lack the tags named with a protein.

B1: anti-Bst2/Damp1 clone 2-11 (Fab, V domains shown)
VH: QEQLMESGGGLVTPGGILSLTCTASGFSISSYRMGWVRQAPGKGLEWIGFINNYGSAYYASWAKSRSTITRNTNLNTVTLKMTSLTAADTATYFCARESYSYGYAYDIWGPGTLVTVSS
VL: ELDLTQTPSSTSTTVGGTVTINCRASQIIGINLAWYQQKPGQPPKLLIWYASDLASGVPSRFRGNVSGSQFTLTISGVQREDAATYYCLGTYGSGVRAFGAGTNVEIKR
B1: in experiment [1], the binding result is listed as “binds”.

B2: anti-Bst2/Damp1 clone 2-13 (Fab, V domains shown)
VH: QEQLVESGGRLVTPGGSLTITCTVSGIDLSGYAMGWVRQAPGKGLEYIGIIGTSDTTYYASWAKGRFTISKTSSTTVDLKMTSLTTEDTATYFCVRSPGGSADLWGQGTLVTISS
VL: ELDMTQTPSSTSTAVGGTVTMNCQASQNIGINLAWYQQKPGQPPKLLIWYASDLASGVPSRFKGSGFGTQFTLTISGMQREDAATYYCLGTYGSGVRAFGAGTNVEIKR
B2: the binding entry in experiment [1] and in experiment [2] was “binds” each time.

B3: anti-Bst2/Damp1 clone 2-19 (Fab, V domains shown)
VH: AQSVKESEGGLFKPTDTLTLTCTVSGFSLSSYEMNWVRQAPGKGLEYIGIIRSDGSTYYASWAKSRSTITRNTNLNTVTLKMTSLTAADTATYFCARDLGYSNDVWGPGTLVTISS
VL: B2 VL with D3V, M4L, M21I, A51T, K63R, G77A, M78I
Regarding B3, the binding result in experiment [1] is reported as “binds”.

B4: anti-Bst2/Damp1 clone 2-4 (Fab, V domains shown)
VH: AQQLVESGGRLVTPGGTLTLTCTASGIDLSSYHMQWVRQAPGKGLEYIGFIDTVGSAYYASWAKGRFTISRTSTTVDLKMTSLTAADTATYFCAGDSGYSIGTLWGQGTLVTVSS
VL: ELVLTQTPSSVSAAVGGTVTINCQATQSIGINLAWYQQKPGQPPKLLIWYASDLASGVPSRFKGSGFGTQFTLTINGVQREDAATYYCLGSYGSGDRAFGAGTNVEIKR
In the case of B4, the binding entry in experiment [1] and in experiment [2] was “binds” each time.

B5: anti-Bst2/Damp1 clone 2-9 (Fab, V domains shown)
VH: AQSLEESGGRLVTPGTPLTLTCTVSGIDLSSYEMSWVRQAPGKGLEYIGFISTSGNTYYASWAKGRFTISKTSTTVDLKITSPTIEDTAAYFCARGPAKSGYGTRLDLWGQGTLVTVSS
VL: B2 VL with M4L, M21I, Y36F, G77N, M78V, Q79E, V96D
B5: the binding entry in experiment [1] and in experiment [2] was “binds” throughout.

B6: anti-Bst2/Damp1 clone 2-14 (Fab, V domains shown)
VH: B3 VH with I114V
VL: B2 VL with M4L, M21I, P59S, M78V, V96D
Take B6: the binding entry in experiment [1] and in experiment [2] was “binds” in each case.

B7: anti-Bst2/Damp1 clone 2-7 (Fab, V domains shown)
VH: AQSVKESEGGLFKPTDTLTLTCTVSGFSLSSHEMNWVRQAPGNGLEYIGIINSYANTYYAGWAKSRSTITRNTNENTVTLTMTSLTAADTATYFCVRDLGYSSDIWGPGTLVTISS
VL: B2 VL with D3V, M21I, M78V, T91S, V96D
Turning to B7, the binding entry in experiment [1] is “binds”.

B8: anti-Bst2/Damp1 clone 2-5 (Fab, V domains shown)
VH: QQQLVESGGGLVTPGTPLTLTCTVSGFSLSSYAMIWVRQAPGKGLEYIGIIRSSGNTYYASWAKGRFTISKTSTTVDLKITSPTTEDTATYFCARDSGYSFGLWGQGTLVTVSS
VL: B4 VL with L4M, T26S, Q27K, S28N, L46Q
Take B8: the binding result in experiment [1] and in experiment [2] was “binds” in each case.

B9: anti-Bst2/Damp1 clone 2-24 (Fab, V domains shown)
VH: AQSVEESRGGLFKPTDTLTLTCTVSGFSLSTYEMNWVRQAPGSGLEYIGIINSAGTTYYASWAKSRSTITRNTNENTVTLKMTSLTAADTATYFCARDLGYSSDIWGPGTLVTVSS
VL: B2 VL with D3V, M21I, V58A, M78V, V96D, A101T
With B9, in experiment [1], the binding result is “binds”.

B10: anti-Bst2/Damp1 clone 2-15 (Fab, V domains shown)
VH: AQSVKESEGRLVTPGTPLTLTCTVSGFSLSNSGMSWVRQAPGKGLEWIGLINSYGTTYYASWAKGRFTISKTSTTVELKITSPTTEDTATYFCARGAGSSYGLWGQGTLVTVSS
VL: ELVMTQTPSSTSTAVGDTVTIKCQASQSIGSNLAWYQQKPGQPPKILIYSASNLASGVPSRFKGSGSGTEYTLTISGVQREDAATYYCLGSDSSWDTVFGGGTELEILR
Turning to B10, the binding entry in experiment [1] and in experiment [2] was “binds” in each case.

B11: anti-Bst2/Damp1 clone 2-10 (Fab, V domains shown)
VH: AQSLEESGGRLVKPDETLTLTCTVSGIDLSSYMIYWVRQAPGKGLEYIGFIYGSGDTYYATWAKGRFTISRPSTTVDLKITSPTTGDTATYFCARSSGWGYGLDLWGPGTLVTISS
VL: ELDLTQTPSSTSTAVGGTVTINCQASQSINVWLSWYQQKPGQPPKLLIYQASKLASGVPSRFKGSGSGTQFTLTISGVQREDVATYYCLGIYNDIDTAFGGGTEVVVKR
As to B11, the binding entry in experiment [1] and in experiment [2] was “binds” throughout.

These data come from US20100129365A1.
